The campaign covered roughly 2,400 compounds. About 20 (0.8%) were called active.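 Rule for the calls: active = AC50 no more than ten times the highest tested concentration, or full inhibition at every dose giving a flat fit (cut at about 30 µM in these data); inconclusive = flat fit with activity between 30% and 70%, or poor-quality invalid fit; inactive = AC50 more than ten times the top tested dose.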 Some of the results follow.
experiment: inhibitors of ADP-Glo detection reagents, dose response, artefact control for GSK-3a inhibitor project, biochemical, luminescence, cell-free, homogeneous (AID 463205); settings: 5 uM ADP;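 note: kinase-free counter-screen against the ADP-Glo detection reagents only; potency is for inhibitors that reduce the luminescence signal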

AC50, inactive:
COc1cc(/C=C2\S/C(=N/S(=O)(=O)Cc3ccccc3)NC2=O)c([N+](=O)[O-])cc1OC > 30 µM, Cc1ccc(C(=O)Nc2nnc(C)s2)cc1 > 30 µM, NC1=NC(=O)/C(=C/c2cccs2)S1 > 30 µM, COc1ccc(NC(=O)/C(C#N)=C\C=C\c2ccco2)cc1 > 30 µM, Cc1ccc(-c2cn3cccnc3n2)cc1NC(=O)c1cccs1 > 30 µM, CC(=O)Nc1ccc(Nc2ncnc(N)c2[N+](=O)[O-])cc1 > 30 µM, O=c1cc(-c2cccnc2)oc2c1ccc1ccccc12 > 30 µM, O=C(c1ccco1)c1cn(CC(=O)N2CCCCC2)c2ccccc12 > 30 µM, CC(=O)C1C(c2ccccc2)c2c(n[nH]c2C)CC1(C)O (centres undefined) > 30 µM, CCOc1cc2c(C#N)c(N3CCCCC3)nc(N)c2c(N)n1 > 30 µM, Cc1cc(C)nc(NC(=O)c2ccc(Br)s2)n1 > 30 µM, CC(=O)c1cnc(Nc2ccccc2)s1 > 30 µM, COc1ccc(S(=O)(=O)N[C@@H](CC(C)C)C(=O)O)cc1 > 30 µM, CSc1cccc(NC(=O)c2nnn(Cc3ccccc3)c2N)c1 > 30 µM, COC(=O)c1cc(O)c(OCc2ccccc2)c(O)c1 > 30 µM, CCN1C(=O)/C(=C\c2ccco2)C(C(=O)OC)=C1C > 30 µM, COc1cc(C2CC(=O)N3CN(Cc4ccco4)CSC3=C2C#N)ccc1OCc1ccccc1 (centres undefined) > 30 µM, COC(=O)[C@@H](NC(=O)NCc1ccccc1F)C(C)C > 30 µM, COc1ccc(-c2oc3cc(O)c(OC)c(O)c3c(=O)c2OC)cc1 > 30 µM, NC(=O)c1c(NC(=O)C(=O)N2CCOCC2)sc2c1CCC2 > 30 µM, Cc1nn2cc(-c3ccccc3)nc2[nH]c1=O > 30 µM, Cc1csc(NC(=O)c2ccc3c(c2)OCO3)n1 > 30 µM, C=CC(=O)Nc1sc2c(c1C(N)=O)CCCC2 > 30 µM, Cc1[nH][nH]c(=O)c1[C@@H](c1ccccc1[N+](=O)[O-])C(C#N)C#N > 30 µM, Nc1ncc(-c2ccccc2)c(-c2ccc(OCc3ccccc3)cc2O)n1 > 30 µM, COc1cc(/C=N/NC(=O)c2ccc(COc3ccccc3Cl)o2)cc(Br)c1O > 30 µM, O=C(O)c1ccc(N=c2oc3cc(O)ccc3cc2C(=O)NCc2ccccc2)cc1 > 30 µM, COc1ccc(C(=O)Nc2nc(C)c(C)s2)cc1OC > 30 µM, COc1ccc(OC)c(S(=O)(=O)N2CCN(C(=O)c3cc(C4CC4)nn3-c3ccccc3)CC2)c1 > 30 µM, CCCOc1cc2c(C#N)c(N3CCCC3)nc(N)c2c(N)n1 > 30 µM, Cc1cc(OC(=O)c2c(C)cc(OC(=O)c3c(C)cc(O)cc3O)cc2O)cc(O)c1C(=O)O > 30 µM, Cc1nc(SCCC(C)C)c([N+](=O)[O-])[nH]1 > 30 µM, O=C(N/N=C/c1cn[nH]c1-c1ccccc1)c1ccco1 > 30 µM, COc1ccccc1N=c1oc2c(OC)cccc2cc1C(=O)NCc1ccco1 > 30 µM, COc1ccc(CC(=O)N2CCOCC2)cc1 > 30 µM, CC(=O)Nc1ccc(S(=O)(=O)NC(C)c2ccncc2)cc1 (centres undefined) > 30 µM, CCN1/C(=C/c2ccc3ccccc3[n+]2CC)C=Cc2ccccc21 > 30 µM, Cc1cc(-c2ccccc2)c2c3c(c(-c4ccccc4)n2n1)c(=O)n(C)c(=O)n3C > 30 µM, c1csc(-c2nn3cnnc3c3ccccc23)c1 > 30 µM, CC(C)c1ccc(/C=N/NC(=O)c2nnn(-c3nonc3N)c2CN(C)C2CCCCC2)cc1 > 30 µM, S=C(Nc1ccc(Cl)cc1)Nc1cccc2cnccc12 > 30 µM, CC(C)(C)C(=O)/C=c1\[nH]c(=O)/c(=C\c2ccc(F)cc2)s1 > 30 µM, COc1cc(C(=O)NCCC(=O)NCCN2CCOCC2)cc(OC)c1OC > 30 µM, O=C(C1CCC1)N1CCC(c2nc3c(nnn3Cc3c(F)cccc3Cl)c(=O)[nH]2)CC1 > 30 µM, COC(=O)C1=C(C)Nc2ncnn2C1c1ccco1 (centres undefined) > 30 µM, Cc1ccnc(NC(=O)Cc2c(F)cccc2Cl)c1 > 30 µM, COC(=O)c1c(C(C)=O)cnc2ccc(Br)cc12 > 30 µM, COc1cc(CN2CCN(Cc3ccc(C)cc3)CC2)c([N+](=O)[O-])cc1OC > 30 µM, COc1ccc2ccccc2c1C1CC(=O)N2CN(Cc3ccco3)CSC2=C1C#N (centres undefined) > 30 µM, CC1(C)Oc2ccc3ccc(=O)oc3c2-c2cn[nH]c21 > 30 µM, CC(C)c1ccc(NC(=O)CSc2n[nH]c(=O)n2-c2ccc3c(c2)OCCO3)cc1 > 30 µM, N#CC1=C2SCN(Cc3ccccc3)CN2C(=O)CC1c1ccc2c(c1)OCO2 (centres undefined) > 30 µM, COc1cc(C2c3sc(=O)[nH]c3SC3C(=O)N(c4ccc(Br)cc4)C(=O)C32)ccc1O (centres undefined) > 30 µM, CCN(C(=O)CN1CCCC(C)C1)c1c(N)n(Cc2ccccc2)c(=O)[nH]c1=O (centres undefined) > 30 µM, O=C(Cc1c(F)cccc1Cl)Nc1ncc([N+](=O)[O-])s1 > 30 µM, Cc1cc(/C=N\NC(=O)c2cccs2)c(C)n1-c1ccc2ncccc2c1 > 30 µM, Cc1nc(Nc2ccc(S(N)(=O)=O)cc2)oc1C > 30 µM, CC1CCC2(CC1)NC(=O)N(CC(=O)Nc1ccc(C(N)=O)cc1)C2=O (centres undefined) > 30 µM, O=C(Nc1cccc(Cl)c1N1CCCC1)c1ccc(Br)o1 > 30 µM
